Reference: patent US10323085B2, “Methods of treating fibromyalgia” (Teva Pharmaceuticals International GmbH, priority 2008, dated 2019)

System: 25-37 human α-CGRP fragment
Assay: Alanine scan of C-terminal CGRP fragment (CGRP 25-37) by Biacore, epitope identification
Format: binding
Settings: Fab fragments of G1, 25° C.
Experimental: Interaction analysis was conducted at 25° C. on a Biacore 3000™ system equipped with streptavidin-coated (SA) sensor chips (Biacore AB, Uppsala, Sweden) using a standard Biacore running buffer (HBS-P). […] Each amino acid between position 27-37 was then mutated individually to alanine and expressed the fold loss in affinity compared to the wild-type fragment. N-biotinylated fragments were captured on individual flow cells at low levels (typically 100 response units) to provide the reaction surfaces, while an unmodified flow cell served as a reference channel. Purified Fab fragments of antibody G1 were generated. Fab fragments were titrated over the chip using 1 μM as the top concentration of a two-fold dilution series. Association and dissociation phases were monitored at 100 μl/min for 1 minute and 5 minutes respectively. Surfaces were regenerated with a mixture of 35% ethanol+25 mM NaOH+0.5M NaCl.

With “G1: humanized IgG2Δa monoclonal anti-CGRP antagonist antibody from expression vectors ATCC PTA-6867 and PTA-6866; variable regions SEQ ID Nos. 1 and 2” the “binding epitope (alanine scan)” value was “last 5 C-terminal amino acids, i.e. from G33A to F37A; also recorded: binds to the C-terminal region of human α-CGRP”.

“Also recorded” adds a separate entry of the source.
